Source: publication doi:10.1101/823146 (bioRxiv, 2019)
No constants are given. Whether binding was seen depends on the method and setting. In cells and extracts the contact can be indirect. Some results given as binding are weak or reduced against the parent protein; the word gives no strength.

Biological target: T1, OmpA (E. coli (endogenous in E. coli cells)) (UniProt P0A910)
T1 sequence: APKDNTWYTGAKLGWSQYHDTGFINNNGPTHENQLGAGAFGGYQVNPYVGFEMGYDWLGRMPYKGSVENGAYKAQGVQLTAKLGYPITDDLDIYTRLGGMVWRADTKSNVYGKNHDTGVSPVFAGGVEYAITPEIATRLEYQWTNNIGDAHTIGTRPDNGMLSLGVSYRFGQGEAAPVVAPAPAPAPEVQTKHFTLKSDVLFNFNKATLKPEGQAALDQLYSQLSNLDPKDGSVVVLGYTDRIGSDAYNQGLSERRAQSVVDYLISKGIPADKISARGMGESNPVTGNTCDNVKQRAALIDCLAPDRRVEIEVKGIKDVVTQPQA
Experiment: cross-linking

B1: RcsF (endogenous) (protein, UniProt P69411 16-134)
chain: CSMLSRSPVEPVQSTAPQPKAEPAKPKAPRATPVRIYTNAEELVGKPFRDLGEVSGDSCQASNQDSPPSIPTARKRMQINASKMKANAVLLHSCEVTSGTPGCYRQAVCIGSALNITAK
modifications: lipid anchor (outer membrane lipoprotein)
binding: binds
